From paper PMC7819943, “Rice protein-binding microarrays: a tool to detect cis-acting elements near promoter regions in rice”
The list shows a part of the results.

Protein sequences, listed by entry. Tags and fused reporters are not part of them.
UniProt Q0JBA9, entry or part of it: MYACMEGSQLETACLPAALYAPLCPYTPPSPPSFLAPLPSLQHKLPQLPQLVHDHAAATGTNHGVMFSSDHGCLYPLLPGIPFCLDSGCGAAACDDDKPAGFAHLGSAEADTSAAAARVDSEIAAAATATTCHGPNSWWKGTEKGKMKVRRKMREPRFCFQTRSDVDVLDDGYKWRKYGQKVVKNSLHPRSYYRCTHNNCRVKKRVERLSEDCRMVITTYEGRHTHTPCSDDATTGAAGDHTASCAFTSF

Molecular target: OsWRKY34 (Oryza sativa, UniProt Q0JBA9 1-250)
Experiment: protein-binding microarray (RPBM); PBS, 2% BSA, 51.3 ng/ul salmon testes DNA, 50 uM zinc acetate, 200 nM TF, 25 C, 1 h; high values mean tight binding
Conditions: protein: recombinant; tags: N-terminal polyhistidine and DsRed monomer fusion (pET32a); label: CyDye5-dUTP incorporated in the synthesized complementary strand; 3' TTTTT single-stranded linker to array surface; dsDNA, one strand shown
How it was run: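 An Axon 4000B scanner gave the binding signal as per-feature fluorescence intensity in arbitrary units. This followed washing of a custom Agilent array that had been incubated for 1 h at 25 °C with 200 nM protein in PBS, 2% BSA, salmon testes DNA and 50 µM zinc acetate. The proteins were transcription factors fused at the N-terminus to polyhistidine and DsRed, expressed in E. coli BL21-CodonPlus and purified on Ni–NTA.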

Compared with “CCCTAATACAATTATTTCTTACTTTATGTACTTCTAATATCGGAGTCACCTAGTGCAG”, “TCTTTCTGTACTTTTCTTTCTTCATTCATGCCGTGATCGACGGAGTCACCTAGTGCAG” is lower in binding signal: 8950 fluorescence intensity (a.u.) for the first, 8830 fluorescence intensity (a.u.) for the second.

Going from “ATATTACATTGCTTGTTCAATATACCCTCTTTATCTTTTCCGGAGTCACCTAGTGCAG” to “TGTGACGCTCTGTTTCTGTTATTCTTTCTGAACCGTTTTCCGGAGTCACCTAGTGCAG”, the binding signal rises from 8460 fluorescence intensity (a.u.) to 9470 fluorescence intensity (a.u.).

Compared with “TGCATGGGTGTCATATCTAGTTGCTATTCAAAATTCATATCGGAGTCACCTAGTGCAG”, “CGAGCTGCCTCCACTGCCTCGCCCACCATTACTACTTCCTCGGAGTCACCTAGTGCAG” is higher in binding signal: 8220 fluorescence intensity (a.u.) for the first, 8340 fluorescence intensity (a.u.) for the second.

First: CTCCGCCGCCGCACTCGCGCTCCGCTACTCTGTCCGCGGCCGGAGTCACCTAGTGCAG
Second: ACTTATGTTGGGTTTCATTTATTCTCGGTCGAATCATGCTCGGAGTCACCTAGTGCAG
The binding signal of the first is higher: 9990 fluorescence intensity (a.u.) for the first, 9530 fluorescence intensity (a.u.) for the second.

Compared with “TTGCTTGGGTTGGGTTGGAGCGGTGAGACGAGAGATTGAGCGGAGTCACCTAGTGCAG”, “CCCTTCCACAAATCCAAATTCCTATTAGCCTCAAATACTTCGGAGTCACCTAGTGCAG” is lower in binding signal: 12600 fluorescence intensity (a.u.) for the first, 8840 fluorescence intensity (a.u.) for the second.

First: ATTCGCCGCCTCGCCTAACCAAAACGCGTCCCTTTCCTCGCGGAGTCACCTAGTGCAG
Second: ATACCGACATTGCTCAAGCTCATTATCATCATCTCCGGGTCGGAGTCACCTAGTGCAG
The binding signal of the first is lower: 8560 fluorescence intensity (a.u.) for the first, 9200 fluorescence intensity (a.u.) for the second.

First: GTGTATAATGGGGTTGAGTTGATTCGTTGAATTGATTGCTCGGAGTCACCTAGTGCAG
Second: ATGTTCCTATTTAATCAAATTTTGTTCAACATTACAAATACGGAGTCACCTAGTGCAG
The binding signal of the first is higher: 8920 fluorescence intensity (a.u.) for the first, 8100 fluorescence intensity (a.u.) for the second.

Compared with “TCATCTCATATATGGTTTGACCGCGATGGTTTGTTTGCCACGGAGTCACCTAGTGCAG”, “TTCTTCCTTAAAATTGTATTCTGGGTGGGGAATTGGTTTACGGAGTCACCTAGTGCAG” is higher in binding signal: 8650 fluorescence intensity (a.u.) for the first, 15700 fluorescence intensity (a.u.) for the second.

Compared with “GTTATTACGGCCCACTCCCGCTATTACATGCCGCACAAGCCGGAGTCACCTAGTGCAG”, “ACCCGACACCCCGACCTCAACTACGACCATAACAATAGCACGGAGTCACCTAGTGCAG” is lower in binding signal: 10900 fluorescence intensity (a.u.) for the first, 8850 fluorescence intensity (a.u.) for the second.

Compared with “GTCCATTATCTTCTTTGCCACCATTGATATATGCCTAACACGGAGTCACCTAGTGCAG”, “AAAATATGTTACTTCCGAATTTCATCCCGTATGTTCGGACCGGAGTCACCTAGTGCAG” is lower in binding signal: 13800 fluorescence intensity (a.u.) for the first, 8160 fluorescence intensity (a.u.) for the second.

First: AGAAACCAAGCACGCATCCATATCCATCCATGCATCCAATCGGAGTCACCTAGTGCAG
Second: CCATTCTTTCATCTCGCTTCACCTCATCGCCATTGCCATCCGGAGTCACCTAGTGCAG
The binding signal of the first is lower: 8770 fluorescence intensity (a.u.) for the first, 8810 fluorescence intensity (a.u.) for the second.

For “GATGTGCAAAATCTAGACCGTTCCACTTGATTATCCATATCGGAGTCACCTAGTGCAG”, the binding signal was 8100 fluorescence intensity (a.u.).
